Source: patent US11661583B2, “Drug discovery platform for Duchenne cardiomyopathy” (University of Washington, priority 2015, dated 2023)
For at least one compound, name, drawing or mass did not settle the structure. Some compounds share one wording; it may come from a single statement.

System: dystrophin deficient cardiomyocytes
Experiment: High-throughput hypotonic stress cell viability (intracellular ATP) screen
Settings: primary screen, dose-response, FIG. 8

Structure (SMILES) | Effect on viability in hypotonic stress screen (in words)
COCCOC(=O)C1=C(C)NC(C)=C(C(=O)OC(C)C)C1c1cccc([N+](=O)[O-])c1 (stereo not drawn) [NIMODIPINE] | manifested a salutary effect
CCOC(=O)C1=C(C)NC(C)=C(C(=O)OC)C1c1cccc([N+](=O)[O-])c1 (stereo not drawn) [NITRENDIPINE] | manifested a salutary effect
CCOC(=O)C1=C(COCCN)NC(C)=C(C(=O)OC)C1c1ccccc1Cl (stereo not drawn) [amlodipine] | did not reveal a similar effect
COC(=O)C1=C(C)NC(C)=C(C(=O)OCCN(C)Cc2ccccc2)C1c1cccc([N+](=O)[O-])c1 (stereo not drawn) [nicardipine] | manifested a salutary effect
COC(=O)C1=C(C)NC(C)=C(C(=O)OC)C1c1ccccc1[N+](=O)[O-] [nifedipine] | did not reveal a similar effect
COC(=O)C1=C(C)NC(C)=C(C(=O)OCC(C)C)C1c1ccccc1[N+](=O)[O-] (stereo not drawn) [nisoldipine] | did not reveal a similar effect
